# Test results: the supplement of paper PMC11006884
# This list holds what a sample rich in targets with a hit left over. Single values of this set are uncertain. The entries are a selection whose mix differs from that of the whole data set.
# Compound: COC(=O)/C=C/c1ccccc1 [methyl cinnamate]
# Assay: log2 ratio of iodoacetamide-alkyne labeling of the cysteine site, DMSO over compound (competition); higher = stronger covalent engagement of the cysteine by the compound, active = 1 or more
# Details: 500 µM; treatment time 1 h; system: HEK293T cell lysate
# Summary of the method: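 After 1 h at ambient temperature with vehicle or electrophile (500 µM), HEK293T lysate (2 mg/mL) was labelled for 1 h with iodoacetamide alkyne and clicked to sCIP-TMT reagents. Pooled samples were trypsin-digested overnight at 37 °C, streptavidin-enriched, acid-eluted and analysed by Orbitrap Eclipse LC-MS/MS with FAIMS, then quantified in FragPipe over three replicates with duplicate channels. A cysteine's log2 competition ratio is its mean control-channel over mean compound-channel reporter intensity. Cysteines quantified in only one replicate were not included.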
row,Target,log2 ratio of iodoacetamide-alkyne labeling
1,VCPIP1 C1178 (UniProt Q96JH7),inactive: 0.118
2,CRBN C441 (UniProt Q96SW2),inactive: -0.00577
3,PBK C22 (UniProt Q96KB5),inactive: 0.24
4,CCT7 C364 (UniProt Q99832),inactive: 0.0488
5,FUBP3 C125 (UniProt Q96I24),inactive: 0.0768
6,PNKP C516 (UniProt Q96T60),inactive: 0.18
7,AHCYL2 C353 (UniProt Q96HN2),inactive: 0.302
8,SPAG5 C382 (UniProt Q96R06),inactive: 0.16
9,MMS19 C723 (UniProt Q96T76),inactive: -0.297
10,TMEM209 C301 (UniProt Q96SK2),inactive: 0.288
11,DNAJC7 C7 (UniProt Q99615),inactive: -0.0174
12,CCT7 C345 (UniProt Q99832),inactive: 0.146
13,MIPEP C649 (UniProt Q99797),inactive: 0.634
14,IWS1 C749 (UniProt Q96ST2),inactive: 0.341
15,EHMT2 C1175 (UniProt Q96KQ7),inactive: 0.0165
16,USP28 C203 (UniProt Q96RU2),inactive: -0.0142
17,RNF2 C72 (UniProt Q99496),inactive: 0.22
18,ITCH C871 (UniProt Q96J02),inactive: 0.0624
19,UniProt Q96JA1_C1066,inactive: 0.29
20,POP1 C705 (UniProt Q99575),inactive: 0.0494
21,SH3GL1 C147 (UniProt Q99961),inactive: 0.186
22,VRK1 C50 (UniProt Q99986),inactive: 0.00473
23,MYBBP1A C623 (UniProt Q9BQG0),inactive: 0.0782
24,RSF1 C650 (UniProt Q96T23),inactive: 0.492
25,SNX27 C247 (UniProt Q96L92),inactive: 0.282

row,Target,log2 ratio of iodoacetamide-alkyne labeling
1,PTPN18 C310 (UniProt Q99952),inactive: 0.277
2,SH3GL1 C96 (UniProt Q99961),inactive: 0.232
3,POP1 C530 (UniProt Q99575),inactive: 0.4
4,SEC22A C111 (UniProt Q96IW7),inactive: -0.0422
5,CDC5L C769 (UniProt Q99459),inactive: 0.111
6,LGMN C219 (UniProt Q99538),inactive: 0.313
7,RBM17 C302 (UniProt Q96I25),inactive: 0.0897
8,CPNE1 C53 (UniProt Q99829),inactive: 0.157
9,UniProt Q9BPU6_C22,inactive: -0.0275
10,VCPIP1 C160 (UniProt Q96JH7),inactive: 0.376
11,RBM15 C926 (UniProt Q96T37),inactive: 0.568
12,MACROD1 C116 (UniProt Q9BQ69),inactive: 0.131
13,TTC1 C8 (UniProt Q99614),inactive: -0.0165
14,NSD1 C1689 (UniProt Q96L73),inactive: -0.0767
15,SNX27 C30 (UniProt Q96L92),inactive: 0.159
16,MYBBP1A C678 (UniProt Q9BQG0),inactive: 0.058
17,L3MBTL3 C515 (UniProt Q96JM7),inactive: -0.18
18,STRBP C40 (UniProt Q96SI9),inactive: -0.129
19,TXN2 C90 (UniProt Q99757),inactive: 0.0692
20,RANBP9 C610 (UniProt Q96S59),inactive: 0.213
21,PSMB7 C87 (UniProt Q99436),inactive: 0.0421
22,RSF1 C1018 (UniProt Q96T23),inactive: -0.00941
23,SPEN C3632 (UniProt Q96T58),inactive: 0.0021
24,STRBP C142 (UniProt Q96SI9),inactive: 0.229
25,PGAM5 C168 (UniProt Q96HS1),inactive: 0.18

# Not a retest: entries from further up.
row,Target,log2 ratio of iodoacetamide-alkyne labeling
22,RSF1 C1018 (UniProt Q96T23),inactive: -0.00941
23,SPEN C3632 (UniProt Q96T58),inactive: 0.0021

# Later entries:

row,Target,log2 ratio of iodoacetamide-alkyne labeling
1,ACO2 C385 (UniProt Q99798),inactive: 0.35
2,WRNIP1 C39 (UniProt Q96S55),inactive: 0.0719
3,UniProt Q96PU8_C35,inactive: 0.091
4,CCT7 C450 (UniProt Q99832),inactive: 0.19
5,VPS13A C582 (UniProt Q96RL7),inactive: 0.387
6,CCT7 C326 (UniProt Q99832),inactive: 0.129
7,PBK C70 (UniProt Q96KB5),inactive: 0.0917
8,CCT7 C29 (UniProt Q99832),inactive: 0.297
9,PSMD1 C633 (UniProt Q99460),inactive: -0.293
10,DOK1 C115 (UniProt Q99704),inactive: -0.0836
11,UHRF1 C170 (UniProt Q96T88),inactive: 0.187
12,FAM110A C114 (UniProt Q9BQ89),inactive: 0.298
13,UniProt Q96L50_C246,inactive: 0.337
14,UniProt Q99590_C346,inactive: 0.0194
15,WRNIP1 C272 (UniProt Q96S55),inactive: 0.0813
16,RPRD1A C220 (UniProt Q96P16),inactive: 0.239
17,EP400 C694 (UniProt Q96L91),inactive: 0.359
18,NSUN5 C308 (UniProt Q96P11),inactive: 0.142
19,RPRD1A C151 (UniProt Q96P16),inactive: 0.255
20,KIF2C C154 (UniProt Q99661),inactive: 0.115
21,TTC1 C66 (UniProt Q99614),inactive: 0.382
22,MYBBP1A C1046 (UniProt Q9BQG0),inactive: 0.215
23,FNBP1 C130 (UniProt Q96RU3),inactive: 0.264
24,OSBPL9 C720 (UniProt Q96SU4),inactive: 0.0182

# Reformatted with tabs: entries from further up.
row	Target	log2 ratio of iodoacetamide-alkyne labeling
17	L3MBTL3 C515 (UniProt Q96JM7)	inactive: -0.18
18	STRBP C40 (UniProt Q96SI9)	inactive: -0.129
